Values from PubChem BioAssay AID1259254 (NCATS, 2017)
The whole screen tested about 59,000 reagents; this is a part drawn at random. In the full data, about 1,550 (2.6%) are marked active. 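G2 share is only a proxy for re-replication; each gene was hit by three separate siRNAs, and active genes were retested.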 Unmarked entries are inactive. The numbers tell different reagents against one gene apart. Not all columns of the deposit are shown. Not stated in the record: the amount of reagent.

- Assay: 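Gene knock-downs that lead to re-replication, shown by excess G2 DNA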 (primary screen)
- System: human HCT116 colorectal cancer cells
- Reagents: single siRNA against human genes
- Time to read-out: 3 days
- Measured: 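Nuclei stained with Hoechst and imaged; cell-cycle phase assigned by DNA content; G2 share scaled per plate, non-targeting siRNA 0%, GMNN siRNA 100%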
- Scale: G2 robust z-score: higher = more G2 cells, more excess DNA replication
- Active means: 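An siRNA counts as active if its G2 robust z-score lies at least 5 MADs above the screen median; here such calls match roughly 38% of GMNN control or more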

With knock-down of ZNRF2 (zinc and ring finger 2) #1, the record shows G2 robust z-score 1.
ZNRF2 (zinc and ring finger 2) #2 showed G2 robust z-score -0.923.
ZNRF2 (zinc and ring finger 2) #3 showed G2 robust z-score 0.27.
Against CASP5 (caspase 5) #1, the values are G2 robust z-score 3.46.
For CASP5 (caspase 5) #2, the values are G2 robust z-score -0.388.
Against CASP5 (caspase 5) #3 the deposit lists G2 robust z-score 1.98.
Depletion of CXCL16 (C-X-C motif chemokine ligand 16) #1 came out at: G2 robust z-score -0.913.
CXCL16 (C-X-C motif chemokine ligand 16) #2 gave G2 robust z-score 0.801.
Knock-down of CXCL16 (C-X-C motif chemokine ligand 16) #3 resulted in: G2 robust z-score 6.88 (active).
Against ABO #1 the deposit lists G2 robust z-score 0.419.
Silencing of ABO #2 resulted in: G2 robust z-score -0.122.
Silencing of ABO #3 resulted in: G2 robust z-score 0.469.

In a second layout: entries from further up
| Target gene | reagent | G2 robust z-score |
| --- | --- | --- |
| CXCL16 (C-X-C motif chemokine ligand 16) | 1 | -0.913 |
| CXCL16 (C-X-C motif chemokine ligand 16) | 2 | 0.801 |
| CXCL16 (C-X-C motif chemokine ligand 16) | 3 | 6.88 (active) |

Further reagents follow:
Knock-down of CYP2D6 #1 gave: G2 robust z-score -0.334.
CYP2D6 #2 gave G2 robust z-score -0.497.
CYP2D6 #3 gave G2 robust z-score 0.955.
MGAT4EP (MGAT4 family member E, pseudogene) #1 gave G2 robust z-score -0.594.
MGAT4EP (MGAT4 family member E, pseudogene) #2 showed G2 robust z-score 1.24.
For MGAT4EP (MGAT4 family member E, pseudogene) #3, the values are G2 robust z-score 0.787.
SETD2 (SET domain containing 2, histone lysine methyltransferase) #1 showed G2 robust z-score -0.0786.
Silencing of SETD2 (SET domain containing 2, histone lysine methyltransferase) #2 gave: G2 robust z-score -0.476.
For SETD2 (SET domain containing 2, histone lysine methyltransferase) #3, the values are G2 robust z-score -1.19.
With knock-down of CEACAM1 (CEA cell adhesion molecule 1) #1, the screen gave G2 robust z-score 0.362.
Knock-down of CEACAM1 (CEA cell adhesion molecule 1) #2 came out at: G2 robust z-score 0.183.
Silencing of CEACAM1 (CEA cell adhesion molecule 1) #3 gave: G2 robust z-score -0.419.
